In paper PMC11832431 (MedComm, 2025):

Target: FLAG-S-tagged YAP1 (UniProt P46937)
Test: affinity purification with mass spectrometry; tandem affinity purification (anti-FLAG affinity gel, 3x FLAG peptide elution, then S-protein agarose) from HCT116 cells stably expressing FLAG-S-YAP1, treated with MG132 (10 uM, 10 h); NETN buffer (20 mM Tris-HCl, 300 mM NaCl, 1 mM EDTA, 0.5% NP-40, pH 8.0), 4 C; LC-MS/MS

B1: deubiquitinating enzyme 3 (DUB3), endogenous (enzyme, UniProt Q6R6M4 1-530)
chain: MEDDSLYLGGEWQFNHFSKLTSSRPDAAFAEIQRTSLPEKSPLSSEARVDLCDDLAPVARQLAPRKKLPLSSRRPAAVGAGLQNMGNTCYENASLQCLTYTPPLANYMLSREHSQTCQRPKCCMLCTMQAHITWALHSPGHVIQPSQALAAGFHRGKQEDAHEFLMFTVDAMKKACLPGHKQVDHHSKDTTLIHQIFGGCWRSQIKCLHCHGISDTFDPYLDIALDIQAAQSVKQALEQLVKPEELNGENAYHCGLCLQRAPASKTLTLHTSAKVLILVLKRFSDVTGNKLAKNVQYPECLDMQPYMSQQNTGPLVYVLYAVLVHAGWSCHDGHYFSYVKAQEGQWYKMDDAKVTACSITSVLSQQAYVLFYIQKSEWERHSESVSRGREPRALGAEDTDRRATQGELKRDHPCLQAPELDERLVERATQESTLDHWKFPQEQNKTKPEFNVRKVEGTLPPNVLVIHQSKYKCGMKNHHPEQQSSLLNLSSTTRTDQESVNTGTLASLQGRTRRSKGKNKHSKRALLVCQ
  binding: binds

No constants are given. Whether binding was seen depends on the method and setting. Binding seen in cells or lysates may run through a third protein. These calls come from enrichment with a bait or labelling near it, and not all partners need be listed.
